PMC7251913
These are yes or no findings as the source states them, for the method shown. Some results given as binding are weak or reduced against the parent protein; the word gives no strength.

Protein sequences, listed by entry. Tags and fused reporters are not part of them.
UniProt Q96RR4: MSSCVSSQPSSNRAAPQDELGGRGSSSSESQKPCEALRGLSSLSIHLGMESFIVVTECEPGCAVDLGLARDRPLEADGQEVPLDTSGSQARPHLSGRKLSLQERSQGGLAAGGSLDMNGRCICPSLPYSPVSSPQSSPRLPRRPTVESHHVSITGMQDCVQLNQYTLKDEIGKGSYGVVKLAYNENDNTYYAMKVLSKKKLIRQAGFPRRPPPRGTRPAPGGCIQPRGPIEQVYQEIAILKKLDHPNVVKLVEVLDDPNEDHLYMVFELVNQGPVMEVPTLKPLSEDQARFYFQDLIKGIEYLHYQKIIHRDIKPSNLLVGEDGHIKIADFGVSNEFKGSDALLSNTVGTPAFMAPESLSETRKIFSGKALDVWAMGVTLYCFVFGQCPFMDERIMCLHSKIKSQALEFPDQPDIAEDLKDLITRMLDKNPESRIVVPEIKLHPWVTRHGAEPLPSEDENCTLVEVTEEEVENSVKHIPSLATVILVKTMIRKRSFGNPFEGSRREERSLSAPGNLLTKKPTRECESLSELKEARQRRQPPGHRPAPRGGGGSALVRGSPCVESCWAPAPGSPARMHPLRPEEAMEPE

Biological target: Ca2+/Calmodulin (CAM)-Dependent Protein Kinase Kinase-2 (CAMKK2) (human (endogenous in HEK293)) (UniProt Q96RR4)
Assay: native gel or EMSA; two-dimensional BN-PAGE (first dimension, native, pH 7, 1.5% n-dodecyl β-D-maltoside lysis buffer) / SDS-PAGE and immunoblot of lysates of wild-type and CAMKK2-/- HEK293 cells; vertical alignment of the complexes

- binding: binds
B1: Ca2+/CAM Dependent Protein Kinase IV (CAMK4) (enzyme, UniProt Q16566 1-473)
chain: MLKVTVPSCSASSCSSVTASAAPGTASLVPDYWIDGSNRDALSDFFEVESELGRGATSIVYRCKQKGTQKPYALKVLKKTVDKKIVRTEIGVLLRLSHPNIIKLKEIFETPTEISLVLELVTGGELFDRIVEKGYYSERDAADAVKQILEAVAYLHENGIVHRDLKPENLLYATPAPDAPLKIADFGLSKIVEHQVLMKTVCGTPGYCAPEILRGCAYGPEVDMWSVGIITYILLCGFEPFYDERGDQFMFRRILNCEYYFISPWWDEVSLNAKDLVRKLIVLDPKKRLTTFQALQHPWVTGKAANFVHMDTAQKKLQEFNARRKLKAAVKAVVASSRLGSASSSHGSIQESHKASRDPSPIQDGNEDMKAIPEGEKIQGDGAQAAVKGAQAELMKVQALEKVKGADINAEEAPKMVPKAVEDGIKVADLELEEGLAEEKLKTVEEAAAPREGQGSSAVGFEVPQQDVILPEY
